The other results are listed elsewhere or left out.
Tests used:
Assay in all cases: log2 fold change, soluble protein after heating vs DMSO (PISA); higher = thermal stabilisation; K562 cells, 10 uM, 30 min; active = over 0.2 and 3.5 SD of the protein, either way, in both replicates (recomputed)
bafetinib = compound: Cc1ccc(NC(=O)c2ccc(CN3CC[C@H](N(C)C)C3)c(C(F)(F)F)c2)cc1Nc1nccc(-c2cncnc2)n1 [bafetinib]
In short: (§1)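 Soluble protein was quantified by TMTpro 16plex LC-MS/MS after channel sums were equalised. It was obtained as the supernatant after 21,000xg for 90 min from pooled aliquots of K562 cells (2×10^6 cells/mL, 10 μM compound, 30 min) heated for 3 min across 48°C-58°C and extracted in PBS with 0.5% NP-40 at 4°C. Thermal stability values are relative to control samples and come from duplicates. They are given as log2 fold changes.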

Chains of the proteins cited; added tags and fusions are not shown. Lines headed by an entry give the natural chain unless they say otherwise; changes in a name come on top.
UniProt P51970, whole entry, looked up: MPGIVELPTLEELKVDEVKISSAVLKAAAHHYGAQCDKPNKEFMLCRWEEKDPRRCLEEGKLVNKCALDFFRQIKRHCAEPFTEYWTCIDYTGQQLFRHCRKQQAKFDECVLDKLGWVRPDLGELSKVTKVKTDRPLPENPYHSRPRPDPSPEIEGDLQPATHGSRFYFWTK
UniProt Q16718, whole entry, looked up: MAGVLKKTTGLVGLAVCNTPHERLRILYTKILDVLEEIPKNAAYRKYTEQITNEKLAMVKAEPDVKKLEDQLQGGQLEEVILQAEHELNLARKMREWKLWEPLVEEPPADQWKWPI
UniProt P62166, whole entry, looked up: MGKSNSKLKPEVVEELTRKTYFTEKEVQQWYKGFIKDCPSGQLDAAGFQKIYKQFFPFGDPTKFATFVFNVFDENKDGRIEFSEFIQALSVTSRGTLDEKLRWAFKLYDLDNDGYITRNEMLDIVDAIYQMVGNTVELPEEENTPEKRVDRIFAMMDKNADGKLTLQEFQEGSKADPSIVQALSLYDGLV
UniProt Q9NX14, whole entry, looked up: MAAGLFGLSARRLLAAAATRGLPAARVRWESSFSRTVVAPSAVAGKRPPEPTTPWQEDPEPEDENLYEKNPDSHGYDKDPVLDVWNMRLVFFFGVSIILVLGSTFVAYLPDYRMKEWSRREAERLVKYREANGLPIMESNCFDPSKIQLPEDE
UniProt Q13459: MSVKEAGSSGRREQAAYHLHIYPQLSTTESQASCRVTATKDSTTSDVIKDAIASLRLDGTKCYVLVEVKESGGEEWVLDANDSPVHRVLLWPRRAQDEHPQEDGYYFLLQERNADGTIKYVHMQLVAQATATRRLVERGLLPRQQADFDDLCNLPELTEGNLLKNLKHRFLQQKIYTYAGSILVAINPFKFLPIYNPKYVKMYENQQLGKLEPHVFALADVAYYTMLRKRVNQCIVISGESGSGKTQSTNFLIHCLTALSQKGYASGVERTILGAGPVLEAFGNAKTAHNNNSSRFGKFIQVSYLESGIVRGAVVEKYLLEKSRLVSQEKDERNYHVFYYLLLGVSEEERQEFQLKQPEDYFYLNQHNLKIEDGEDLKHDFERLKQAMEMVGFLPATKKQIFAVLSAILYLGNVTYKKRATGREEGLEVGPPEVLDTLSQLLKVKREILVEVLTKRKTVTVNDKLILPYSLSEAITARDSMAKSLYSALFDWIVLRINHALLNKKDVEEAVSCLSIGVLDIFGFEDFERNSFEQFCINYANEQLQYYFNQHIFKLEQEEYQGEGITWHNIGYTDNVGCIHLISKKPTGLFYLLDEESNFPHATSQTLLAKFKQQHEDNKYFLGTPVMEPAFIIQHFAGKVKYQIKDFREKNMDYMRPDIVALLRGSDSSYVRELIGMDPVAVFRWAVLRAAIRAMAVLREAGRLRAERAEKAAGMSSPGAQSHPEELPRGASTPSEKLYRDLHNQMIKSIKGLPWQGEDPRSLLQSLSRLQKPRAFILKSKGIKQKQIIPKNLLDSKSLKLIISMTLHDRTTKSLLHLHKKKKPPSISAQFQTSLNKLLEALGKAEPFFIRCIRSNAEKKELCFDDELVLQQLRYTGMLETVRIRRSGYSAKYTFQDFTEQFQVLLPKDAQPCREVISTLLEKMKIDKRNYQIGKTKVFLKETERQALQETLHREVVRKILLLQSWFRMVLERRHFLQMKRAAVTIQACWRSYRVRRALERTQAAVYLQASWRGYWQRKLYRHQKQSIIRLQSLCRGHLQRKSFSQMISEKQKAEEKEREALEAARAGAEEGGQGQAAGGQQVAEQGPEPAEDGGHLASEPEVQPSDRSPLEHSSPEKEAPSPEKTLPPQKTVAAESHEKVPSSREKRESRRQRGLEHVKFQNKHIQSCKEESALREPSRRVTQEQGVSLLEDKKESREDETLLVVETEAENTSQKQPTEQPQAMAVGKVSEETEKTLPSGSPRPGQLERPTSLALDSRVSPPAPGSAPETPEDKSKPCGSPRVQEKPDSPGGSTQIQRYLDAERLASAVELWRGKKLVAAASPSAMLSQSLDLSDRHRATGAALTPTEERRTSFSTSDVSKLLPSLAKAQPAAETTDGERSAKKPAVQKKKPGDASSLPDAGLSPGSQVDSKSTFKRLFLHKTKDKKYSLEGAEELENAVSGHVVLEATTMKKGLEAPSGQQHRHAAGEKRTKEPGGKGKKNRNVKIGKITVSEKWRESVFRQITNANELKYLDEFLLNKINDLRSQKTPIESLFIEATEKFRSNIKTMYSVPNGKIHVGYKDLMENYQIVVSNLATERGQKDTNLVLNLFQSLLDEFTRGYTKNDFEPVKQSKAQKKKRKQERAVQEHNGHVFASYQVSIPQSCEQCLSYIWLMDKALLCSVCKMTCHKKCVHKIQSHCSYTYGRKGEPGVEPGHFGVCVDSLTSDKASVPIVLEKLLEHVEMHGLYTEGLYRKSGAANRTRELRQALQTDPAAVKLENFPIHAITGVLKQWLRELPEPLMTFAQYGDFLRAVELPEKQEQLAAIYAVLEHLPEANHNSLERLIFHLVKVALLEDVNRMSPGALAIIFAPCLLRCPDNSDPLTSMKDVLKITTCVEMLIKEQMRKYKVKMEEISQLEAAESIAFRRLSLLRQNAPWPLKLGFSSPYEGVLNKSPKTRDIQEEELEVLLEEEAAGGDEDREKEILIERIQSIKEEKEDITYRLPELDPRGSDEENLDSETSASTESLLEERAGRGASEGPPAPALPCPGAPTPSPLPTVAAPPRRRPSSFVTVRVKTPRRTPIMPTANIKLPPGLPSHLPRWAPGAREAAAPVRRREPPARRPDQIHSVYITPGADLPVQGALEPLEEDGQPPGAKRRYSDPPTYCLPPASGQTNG
UniProt Q9UN36: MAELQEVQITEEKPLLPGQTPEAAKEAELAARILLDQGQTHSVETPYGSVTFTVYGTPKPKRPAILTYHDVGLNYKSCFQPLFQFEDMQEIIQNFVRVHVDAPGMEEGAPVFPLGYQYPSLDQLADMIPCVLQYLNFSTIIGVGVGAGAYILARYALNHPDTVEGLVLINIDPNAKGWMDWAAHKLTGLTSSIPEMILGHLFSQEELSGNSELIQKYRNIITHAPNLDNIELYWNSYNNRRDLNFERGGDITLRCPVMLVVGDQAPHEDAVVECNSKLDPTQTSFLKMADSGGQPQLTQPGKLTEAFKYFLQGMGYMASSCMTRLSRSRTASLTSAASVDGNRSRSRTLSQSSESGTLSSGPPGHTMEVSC
UniProt P49321, whole entry, looked up: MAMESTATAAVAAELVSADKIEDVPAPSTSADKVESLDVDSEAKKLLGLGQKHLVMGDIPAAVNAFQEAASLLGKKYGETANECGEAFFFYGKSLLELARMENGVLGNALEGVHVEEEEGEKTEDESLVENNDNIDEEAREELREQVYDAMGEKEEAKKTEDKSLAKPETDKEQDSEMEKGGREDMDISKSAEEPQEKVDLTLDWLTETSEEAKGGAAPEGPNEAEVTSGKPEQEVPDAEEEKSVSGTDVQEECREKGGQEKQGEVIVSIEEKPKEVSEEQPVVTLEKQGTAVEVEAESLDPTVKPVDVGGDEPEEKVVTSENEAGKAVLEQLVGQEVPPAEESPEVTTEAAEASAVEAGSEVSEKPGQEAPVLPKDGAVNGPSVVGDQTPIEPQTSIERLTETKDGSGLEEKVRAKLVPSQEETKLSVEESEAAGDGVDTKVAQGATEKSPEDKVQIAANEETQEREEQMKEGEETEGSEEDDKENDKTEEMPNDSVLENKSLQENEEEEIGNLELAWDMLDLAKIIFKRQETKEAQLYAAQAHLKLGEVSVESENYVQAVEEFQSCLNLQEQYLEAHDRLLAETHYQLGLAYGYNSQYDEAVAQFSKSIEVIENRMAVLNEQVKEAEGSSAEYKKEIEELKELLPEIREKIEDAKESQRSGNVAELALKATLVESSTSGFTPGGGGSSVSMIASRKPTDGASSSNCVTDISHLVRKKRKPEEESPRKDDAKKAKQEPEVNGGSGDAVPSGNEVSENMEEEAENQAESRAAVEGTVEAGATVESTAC
UniProt Q9BRA0: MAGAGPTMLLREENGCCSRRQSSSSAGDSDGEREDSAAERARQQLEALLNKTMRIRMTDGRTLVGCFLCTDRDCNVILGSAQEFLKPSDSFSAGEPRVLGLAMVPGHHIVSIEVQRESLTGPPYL
UniProt Q8NC96: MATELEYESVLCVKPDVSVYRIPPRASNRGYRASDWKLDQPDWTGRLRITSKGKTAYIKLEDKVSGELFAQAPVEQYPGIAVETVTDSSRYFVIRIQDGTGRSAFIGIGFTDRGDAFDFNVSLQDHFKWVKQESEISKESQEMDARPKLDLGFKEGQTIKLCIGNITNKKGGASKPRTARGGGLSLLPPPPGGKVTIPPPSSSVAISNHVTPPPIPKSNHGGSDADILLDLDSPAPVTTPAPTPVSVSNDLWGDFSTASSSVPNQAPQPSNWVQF
UniProt P54920: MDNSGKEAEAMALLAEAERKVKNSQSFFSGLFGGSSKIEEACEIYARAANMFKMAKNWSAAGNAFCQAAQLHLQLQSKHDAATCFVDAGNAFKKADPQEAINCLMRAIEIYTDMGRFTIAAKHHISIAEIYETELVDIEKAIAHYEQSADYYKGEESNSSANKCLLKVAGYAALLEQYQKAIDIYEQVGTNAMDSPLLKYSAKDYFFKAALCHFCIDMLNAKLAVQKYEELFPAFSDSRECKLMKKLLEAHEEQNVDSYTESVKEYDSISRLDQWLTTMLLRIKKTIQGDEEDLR
UniProt P19404, whole entry, looked up: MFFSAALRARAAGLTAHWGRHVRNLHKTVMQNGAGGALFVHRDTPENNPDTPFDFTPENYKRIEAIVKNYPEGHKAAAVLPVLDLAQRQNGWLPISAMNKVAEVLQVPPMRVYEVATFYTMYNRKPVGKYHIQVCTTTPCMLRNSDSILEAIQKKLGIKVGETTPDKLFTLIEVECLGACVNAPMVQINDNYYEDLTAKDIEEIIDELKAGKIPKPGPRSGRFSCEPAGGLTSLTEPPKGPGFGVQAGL
UniProt O76041: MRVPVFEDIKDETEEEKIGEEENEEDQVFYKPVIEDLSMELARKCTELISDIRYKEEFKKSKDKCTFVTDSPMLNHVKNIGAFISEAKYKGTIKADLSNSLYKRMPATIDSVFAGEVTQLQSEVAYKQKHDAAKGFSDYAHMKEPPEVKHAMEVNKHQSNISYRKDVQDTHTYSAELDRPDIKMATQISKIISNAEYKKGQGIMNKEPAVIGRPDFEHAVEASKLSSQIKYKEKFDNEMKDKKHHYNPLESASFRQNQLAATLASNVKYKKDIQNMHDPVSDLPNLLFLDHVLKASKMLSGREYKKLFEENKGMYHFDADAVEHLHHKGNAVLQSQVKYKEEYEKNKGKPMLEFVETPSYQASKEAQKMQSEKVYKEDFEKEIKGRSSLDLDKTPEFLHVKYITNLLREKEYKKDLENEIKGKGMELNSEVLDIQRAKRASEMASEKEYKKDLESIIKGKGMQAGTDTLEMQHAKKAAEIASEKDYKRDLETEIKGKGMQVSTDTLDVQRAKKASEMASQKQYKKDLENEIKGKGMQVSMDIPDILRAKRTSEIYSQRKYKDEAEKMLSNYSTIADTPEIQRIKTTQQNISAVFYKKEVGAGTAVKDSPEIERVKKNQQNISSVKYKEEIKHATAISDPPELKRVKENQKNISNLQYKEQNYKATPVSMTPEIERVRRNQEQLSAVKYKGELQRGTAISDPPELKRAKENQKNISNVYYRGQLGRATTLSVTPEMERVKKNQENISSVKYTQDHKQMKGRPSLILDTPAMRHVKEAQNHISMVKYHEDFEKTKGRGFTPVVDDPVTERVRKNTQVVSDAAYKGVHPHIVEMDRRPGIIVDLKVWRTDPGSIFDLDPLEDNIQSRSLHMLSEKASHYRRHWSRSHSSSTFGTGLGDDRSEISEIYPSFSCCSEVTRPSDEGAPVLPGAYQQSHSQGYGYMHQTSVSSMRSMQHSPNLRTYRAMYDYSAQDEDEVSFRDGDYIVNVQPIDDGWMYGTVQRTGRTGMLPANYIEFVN
UniProt Q969V3: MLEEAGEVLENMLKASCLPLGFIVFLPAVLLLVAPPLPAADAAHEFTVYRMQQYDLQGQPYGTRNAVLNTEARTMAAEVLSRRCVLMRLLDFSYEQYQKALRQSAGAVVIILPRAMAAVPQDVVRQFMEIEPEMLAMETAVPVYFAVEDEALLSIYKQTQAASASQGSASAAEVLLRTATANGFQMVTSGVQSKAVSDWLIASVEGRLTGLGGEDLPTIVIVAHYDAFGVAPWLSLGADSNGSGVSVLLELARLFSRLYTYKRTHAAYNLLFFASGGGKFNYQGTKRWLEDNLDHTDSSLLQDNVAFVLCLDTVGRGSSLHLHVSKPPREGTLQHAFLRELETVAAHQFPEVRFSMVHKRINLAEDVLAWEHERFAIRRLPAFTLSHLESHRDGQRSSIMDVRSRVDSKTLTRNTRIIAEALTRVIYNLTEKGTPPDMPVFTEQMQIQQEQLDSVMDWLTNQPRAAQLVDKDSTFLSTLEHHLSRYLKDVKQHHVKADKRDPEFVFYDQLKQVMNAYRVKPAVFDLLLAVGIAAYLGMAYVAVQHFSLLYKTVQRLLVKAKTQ

[1] = compound: Cc1cccc(CC(=O)N2CCc3c2ccc(-c2cn(C)c4ncnc(N)c24)c3F)n1
In short: as §1

nilotinib = compound: Cc1cn(-c2cc(NC(=O)c3ccc(C)c(Nc4nccc(-c5cccnc5)n4)c3)cc(C(F)(F)F)c2)cn1 [nilotinib]
In short: as §1

[2] = compound: Cc1nc(Nc2n[nH]c3c2CN(C(=O)N[C@H](CN(C)C)c2ccccc2)C3(C)C)c2sccc2n1
In short: as §1

dasatinib = compound: Cc1nc(Nc2ncc(C(=O)Nc3c(C)cccc3Cl)s2)cc(N2CCN(CCO)CC2)n1 [dasatinib]
In short: as §1

[3] = compound: Cc1ncc(-c2ccnc(Nc3ccc(S(C)(=O)=O)cc3)n2)n1C(C)C
In short: as §1

[4] = compound: Cn1cc(-c2ccc3c(c2)CCN3C(=O)Cc2cccc(C(F)(F)F)c2)c2c(N)ncnc21
In short: as §1

[5] = compound: Cn1cc(-c2ccc3nnc(C(F)(F)c4ccc5ncccc5c4)n3n2)cn1
In short: as §1

tipifarnib = compound: Cn1cncc1[C@@](N)(c1ccc(Cl)cc1)c1ccc2c(c1)c(-c1cccc(Cl)c1)cc(=O)n2C [tipifarnib]
In short: as §1

mubritinib = compound: FC(F)(F)c1ccc(/C=C/c2nc(COc3ccc(CCCCn4ccnn4)cc3)co2)cc1 [mubritinib]
In short: as §1

[6] = compound: NC(=O)Nc1cc(-c2cccc(F)c2)sc1C(=O)N[C@H]1CCCNC1
In short: as §1

[7] = compound: NC(=O)c1cnc(N[C@@H]2CCCC[C@@H]2N)nc1Nc1cccc(-n2nccn2)c1
In short: as §1

[8] = compound: NC1(c2ccc(-c3nc4ccn5c(=O)[nH]nc5c4cc3-c3ccccc3)cc2)CCC1
In short: as §1

[9] = compound: NCC(=O)Nc1ccc(-n2nc(C(F)(F)F)cc2-c2ccc3c(ccc4ccccc43)c2)cc1
In short: as §1

entinostat = compound: Nc1ccccc1NC(=O)c1ccc(CNC(=O)OCc2cccnc2)cc1 [entinostat]
In short: as §1

vorinostat = compound: O=C(CCCCCCC(=O)Nc1ccccc1)NO [vorinostat]
In short: as §1

citarinostat = compound: O=C(CCCCCCNC(=O)c1cnc(N(c2ccccc2)c2ccccc2Cl)nc1)NO [citarinostat]
In short: as §1

silmitasertib = compound: O=C(O)c1ccc2c(c1)nc(Nc1cccc(Cl)c1)c1ccncc12 [silmitasertib]
In short: as §1

[10] = compound: O=C1NC(=O)C(c2cnc3ccccn23)=C1c1cn2c3c(cc(F)cc13)CN(C(=O)N1CCCCC1)CC2
In short: as §1

[11] = compound: c1cc(OCCN2CCCCC2)cc(-c2n[nH]c3ccc(-c4nnc[nH]4)cc23)c1
In short: as §1

Measured: log2 fold change

NCALD (UniProt P61601)
inactive: bafetinib -0.026 | [1] 0.079 | nilotinib 0.011 | [2] 0.046 | dasatinib -0.053 | [3] -0.014 | [4] -0.024 | [5] 0.021 | tipifarnib -0.026 | mubritinib 0.048 | [6] 0.01 | [7] 0.004 | [8] -0.038 | [9] 0.005 | entinostat 0.034 | vorinostat -0.019 | citarinostat -0.02 | silmitasertib 0.057 | [10] -0.035 | [11] -0.037

NDUFA8 (UniProt P51970)
inactive: bafetinib -0.165 | [1] 0.013 | nilotinib -0.009 | [2] 0.037 | dasatinib 0.011 | [3] -0.004 | [4] 0.035 | [5] 0.197 | tipifarnib 0.009 | mubritinib 0.014 | [6] -0.052 | [7] -0.025 | [8] -0.065 | [9] -0.036 | entinostat 0.011 | vorinostat 0.019 | citarinostat 0.024 | silmitasertib -0.013 | [10] -0.045 | [11] -0.044

NDUFA5 (UniProt Q16718)
inactive: bafetinib -0.106 | [1] -0.005 | nilotinib 0.02 | [2] -0.017 | dasatinib 0.014 | [3] -0.064 | [4] 0.138 | [5] 0.246 | tipifarnib -0.099 | mubritinib 0.085 | [6] -0.071 | [7] -0.086 | [8] -0.058 | [9] -0.076 | entinostat 0.078 | vorinostat -0.028 | citarinostat 0.025 | silmitasertib -0.025 | [10] -0.225 | [11] -0.064

NCS1 (UniProt P62166)
inactive: bafetinib -0.088 | [1] 0.043 | nilotinib -0.008 | [2] 0.018 | dasatinib -0.059 | [3] -0.018 | [4] -0.011 | [5] -0.046 | tipifarnib 0.032 | mubritinib -0.002 | [6] -0.02 | [7] -0.052 | [8] -0.098 | [9] -0.007 | entinostat 0.002 | vorinostat -0.027 | citarinostat -0.005 | silmitasertib 0.044 | [10] 0.011 | [11] -0.031

NDUFB11 isoform 2 (UniProt Q9NX14)
inactive: bafetinib -0.063 | [1] -0.044 | nilotinib 0.003 | [2] 0.022 | dasatinib 0.019 | [3] -0.02 | [4] 0.119 | [5] 0.035 | tipifarnib -0.044 | mubritinib 0.026 | [6] 0.017 | [7] -0.024 | [8] -0.002 | [9] -0.005 | entinostat 0.059 | vorinostat 0.007 | citarinostat 0.01 | silmitasertib -0.053 | [10] -0.029 | [11] 0

MYO9B (UniProt Q13459)
inactive: bafetinib 0.127 | [1] -0.066 | nilotinib -0.069 | [2] 0.004 | dasatinib -0.033 | [3] -0.007 | [4] -0.17 | [5] -0.048 | tipifarnib -0.068 | mubritinib -0.031 | [6] -0.043 | [7] -0.011 | [8] 0.001 | [9] -0.042 | entinostat 0.018 | vorinostat -0.017 | citarinostat 0.038 | silmitasertib 0.156 | [10] 0.162 | [11] -0.135

NDRG2 (UniProt Q9UN36)
inactive: bafetinib -0.05 | [1] 0.022 | nilotinib -0.005 | [2] 0.031 | dasatinib -0.057 | [3] 0 | [4] -0.006 | [5] 0.002 | tipifarnib -0.059 | mubritinib 0.034 | [6] -0.015 | [7] 0.018 | [8] -0.018 | [9] -0.099 | entinostat 0 | vorinostat 0.021 | citarinostat 0.057 | silmitasertib -0.027 | [10] -0.024 | [11] -0.08

NASP (UniProt P49321)
inactive: bafetinib -0.036 | [1] 0.011 | nilotinib -0.013 | [2] -0.032 | dasatinib -0.027 | [3] 0 | [4] -0.02 | [5] 0.009 | tipifarnib -0.026 | mubritinib 0.026 | [6] -0.009 | [7] -0.081 | [8] -0.06 | [9] -0.054 | entinostat 0.035 | vorinostat 0.028 | citarinostat 0.035 | silmitasertib 0.063 | [10] -0.034 | [11] -0.02

NA, A0A0B4J2A0
inactive: bafetinib -0.066 | [1] 0.024 | nilotinib 0.035 | [2] -0.024 | dasatinib -0.111 | [3] 0.006 | [4] 0.025 | [5] -0.015 | tipifarnib 0.007 | mubritinib -0.011 | [6] -0.025 | [7] 0.029 | [8] -0.061 | [9] 0.031 | entinostat 0.029 | vorinostat 0.05 | citarinostat 0.029 | silmitasertib 0.017 | [10] -0.059 | [11] -0.012

NAA38 isoform 2 (UniProt Q9BRA0)
inactive: bafetinib 0 | [1] -0.019 | nilotinib -0.128 | [2] 0.052 | dasatinib -0.051 | [3] -0.066 | [4] 0.028 | [5] -0.047 | tipifarnib -0.039 | mubritinib -0.03 | [6] -0.064 | [7] -0.029 | [8] -0.105 | [9] 0.026 | entinostat -0.009 | vorinostat -0.041 | citarinostat -0.152 | silmitasertib 0.017 | [10] 0.038 | [11] -0.264

NAE1 (UniProt Q13564)
inactive: bafetinib -0.006 | [1] 0.039 | nilotinib -0.066 | [2] -0.025 | dasatinib -0.065 | [3] -0.019 | [4] 0.056 | [5] 0.007 | tipifarnib -0.054 | mubritinib 0.14 | [6] -0.078 | [7] -0.019 | [8] -0.113 | [9] -0.004 | entinostat 0.003 | vorinostat 0.049 | citarinostat 0.063 | silmitasertib 0.001 | [10] -0.028 | [11] -0.064

NECAP1 (UniProt Q8NC96)
inactive: bafetinib -0.025 | [1] -0.016 | nilotinib -0.048 | [2] -0.043 | dasatinib -0.074 | [3] -0.038 | [4] 0.046 | [5] -0.011 | tipifarnib -0.051 | mubritinib 0.038 | [6] -0.05 | [7] -0.024 | [8] -0.078 | [9] -0.03 | entinostat 0.016 | vorinostat 0.039 | citarinostat 0.046 | silmitasertib -0.045 | [10] -0.059 | [11] -0.008

NAPA (UniProt P54920)
inactive: bafetinib -0.009 | [1] 0.022 | nilotinib 0.002 | [2] -0.044 | dasatinib -0.018 | [3] 0.041 | [4] 0.039 | [5] 0 | tipifarnib -0.012 | mubritinib 0.025 | [6] 0.016 | [7] -0.013 | [8] -0.056 | [9] 0.04 | entinostat 0.009 | vorinostat 0.016 | citarinostat 0.027 | silmitasertib 0.014 | [10] -0.026 | [11] -0.05

NDUFV2 (UniProt P19404)
inactive: bafetinib -0.035 | [1] -0.024 | nilotinib 0.039 | [2] -0.026 | dasatinib -0.017 | [3] -0.047 | [4] 0.029 | [5] 0.028 | tipifarnib 0.087 | mubritinib 0.052 | [6] 0.015 | [7] 0.052 | [8] -0.028 | [9] -0.015 | entinostat 0.001 | vorinostat -0.011 | citarinostat 0.01 | silmitasertib 0.025 | [10] -0.079 | [11] -0.01

Copied from above (2 entries):
NAA38 isoform 2 (UniProt Q9BRA0)
inactive: bafetinib 0 | [1] -0.019 | nilotinib -0.128 | [2] 0.052 | dasatinib -0.051 | [3] -0.066 | [4] 0.028 | [5] -0.047 | tipifarnib -0.039 | mubritinib -0.03 | [6] -0.064 | [7] -0.029 | [8] -0.105 | [9] 0.026 | entinostat -0.009 | vorinostat -0.041 | citarinostat -0.152 | silmitasertib 0.017 | [10] 0.038 | [11] -0.264

NAE1 (UniProt Q13564)
inactive: bafetinib -0.006 | [1] 0.039 | nilotinib -0.066 | [2] -0.025 | dasatinib -0.065 | [3] -0.019 | [4] 0.056 | [5] 0.007 | tipifarnib -0.054 | mubritinib 0.14 | [6] -0.078 | [7] -0.019 | [8] -0.113 | [9] -0.004 | entinostat 0.003 | vorinostat 0.049 | citarinostat 0.063 | silmitasertib 0.001 | [10] -0.028 | [11] -0.064

(cont.)

NEBL isoform 2 (UniProt O76041)
inactive: bafetinib -0.05 | [1] -0.033 | nilotinib 0.055 | [2] -0.046 | dasatinib 0.019 | [3] -0.028 | [4] -0.007 | [5] 0.018 | tipifarnib 0.013 | mubritinib 0.056 | [6] -0.045 | [7] -0.039 | [8] 0.048 | [9] -0.006 | entinostat -0.053 | vorinostat -0.068 | citarinostat 0.009 | silmitasertib 0.015 | [10] -0.046 | [11] -0.052

NCLN (UniProt Q969V3)
inactive: bafetinib -0.038 | [1] -0.01 | nilotinib -0.009 | [2] 0.025 | dasatinib 0.005 | [3] -0.03 | [4] -0.015 | [5] 0 | tipifarnib 0.028 | mubritinib -0.024 | [6] 0.007 | [7] 0.022 | [8] -0.034 | [9] 0.014 | entinostat 0.007 | vorinostat 0.012 | citarinostat 0.029 | silmitasertib 0.011 | [10] -0.015 | [11] -0.04

Reference: the supplement of paper PMC10849652
